According to publication PMC9788671:
No constants are given. Whether binding was seen depends on the method and setting. Binding seen in cells or lysates may run through a third protein. Here binding means that the protein was enriched with, or labelled near, the bait; the list need not be complete.

Protein sequences, listed by entry. Tags and fused reporters are not part of them.
UniProt Q9NZV8: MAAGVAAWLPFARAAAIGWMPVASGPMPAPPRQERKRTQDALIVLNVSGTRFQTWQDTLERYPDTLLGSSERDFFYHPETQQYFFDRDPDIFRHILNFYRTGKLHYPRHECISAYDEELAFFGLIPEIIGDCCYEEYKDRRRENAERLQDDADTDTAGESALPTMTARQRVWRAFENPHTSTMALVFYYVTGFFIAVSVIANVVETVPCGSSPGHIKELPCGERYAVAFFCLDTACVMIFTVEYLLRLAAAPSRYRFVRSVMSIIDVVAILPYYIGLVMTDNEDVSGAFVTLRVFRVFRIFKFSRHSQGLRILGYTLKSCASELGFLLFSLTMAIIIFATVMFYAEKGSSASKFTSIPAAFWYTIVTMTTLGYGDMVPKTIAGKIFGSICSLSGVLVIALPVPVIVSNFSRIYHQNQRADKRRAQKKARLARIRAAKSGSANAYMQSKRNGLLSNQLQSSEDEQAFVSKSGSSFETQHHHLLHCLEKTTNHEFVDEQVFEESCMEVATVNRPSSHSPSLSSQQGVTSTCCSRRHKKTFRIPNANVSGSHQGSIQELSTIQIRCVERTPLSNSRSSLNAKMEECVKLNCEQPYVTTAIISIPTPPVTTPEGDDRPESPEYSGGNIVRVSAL

Legend:
TAP-Kv4.2 (human) [1] = target: TAP-Kv4.2 (human) (UniProt Q9NZV8); assay: affinity purification with mass spectrometry; TAP-Kv4.2 expressed by lentivirus in rat hippocampal neurons, harvested at DIV14; weak lysis buffer of the kit (0.1% NP-40); streptavidin resin, then calmodulin resin; gel cut into high and low molecular weight fragments; no MS of the control sample
TAP-Kv4.2 (human) [2] = target: TAP-Kv4.2 (human) (UniProt Q9NZV8); assay: affinity purification with mass spectrometry; TAP-Kv4.2 expressed by lentivirus in rat hippocampal neurons, harvested at DIV14; strong lysis buffer (1% Triton X-100, 0.5% deoxycholate in PBS, pH 7.4); streptavidin resin, then calmodulin resin; gel cut into high and low molecular weight fragments; no MS of the control sample

| Binder | binding (TAP-Kv4.2 (human) [1]) | binding (TAP-Kv4.2 (human) [2]) |
| --- | --- | --- |
| Pcca (protein, UniProt P14882 62-737) SVEYEPKEKTFDKILIANRGEIACRVIKTCRKMGIRTVAIHSDVDASSVHVKMADEAVCVGPAPTSKSYLNMDAIMEAIKKTGAQAVHPGYGFLSENKEFAKCLAAEDVTFIGPDTHAIQAMGDKIESKLLAKRAKVNTIPGFDGVLKDADEAVRIAREIGYPVMIKASAGGGGKGMRIPWDDEETRDGFRFSSQEAASSFGDDRLLIEKFIDNPRHIEIQVLGDKHGNALWLNERECSIQRRNQKVVEEAPSIFLDPETRRAMGEQAVAWPKAVKYSSAGTVEFLVDSQKNFYFLEMNTRLQVEHPVTECITGLDLVQEMILVAKGYPLRHKQEDIPISGWAVECRVYAEDPYKSFGLPSIGRLSQYQEPIHLPGVRVDSGIQPGSDISIYHDPMISKLVTYGSDRAEALKRMEDALDSYVIRGVTHNIPLLREVIINTRFVKGDISTKFLSDVYPDGFKGHMLTPSERDQLLAIASSLFVASQLRAQRFQEHSRVPVIRPDVAKWELSVKLHDEDHTVVASNNGPTFNVEVDGSKLNVTSTWNLASPLLSVNVDGTQRTVQCLSPDAGGNMSIQFLGTVYKVHILTKLAAELNKFMLEKVPKDTSSVLRSPKPGVVVAVSVKPGDMVAEGQEICVIEAMKMQNSMTAGKMGKVKLVHCKAGDTVGEGDLLVELE | binds | binds |
| Lrrc7 (protein, UniProt P70587 1-1490) MTTKRKLIGRLVPCRCFRGEEEIISVLDYSHCSLQQVPKEVFNFERTLEELYLDANQIEELPKQLFNCQALRKLSIPDNDLSSLPTSIASLVNLKELDISKNGVQEFPENIKCCKCLTIIEASVNPISKLPDGFTQLLNLTQLYLNDAFLEFLPANFGRLVKLRILELRENHLKTLPKSMHKLAQLERLDLGNNEFSELPEVLDQIQNLRELWMDNNALQVLPGSIGKLKMLVYLDMSKNRIETVDMDISGCEALEDLLLSSNMLQQLPDSIGLLKKLTTLKVDDNQLTMLPNTIGNLSLLEEFDCSCNELESLPPTIGYLHSLRTLAVDENFLPELPREIGSCKNVTVMSLRSNKLEFLPEEIGQMQRLRVLNLSDNRLKNLPFSFTKLKELAALWLSDNQSKALIPLQTEAHPETKQRVLTNYMFPQQPRGDEDFQSDSDSFNPTLWEEQRQQRMTVAFEFEDKKEDDESAGKVKALSCQAPWDRGQRGITLQPARLSGDCCTPWARCDQQIQDMPVPQSDPQLAWGCISGLQQERSMCAPLPVAAQSTTLPSLSGRQVEINLKRYPTPYPEDLKNMVKSVQNLVGKPSHGVRVENANPTANTEQTVKEKFEHKWPVAPKEITVEDSFVHPANEMRIGELHPSLAETPLYPPKLVLLGKDKKESTDESEVDKTHCLNNSVSSGTYSDYSPSQASSASSNTRVKVGSLQPTTKDAVHNSLWGNRIAPPFPQPLDAKPLLTQREAVPPGNLPQRPDRLPMSDAFPDNWTDGSHYDNTGFVSEEATGENANNNPLLSSKARSVPAHGRRPLIRQERIVGVPLELEQSTHRHTPETEVPPSNPWQNWTRTPSPFEDRTAFPSKLETTPTTSPLPERKDHMKEPTETPGPFSPGVPWEYHDPTPNRSLGNVFSQIHCRPDSSKGVIAISKSTERLSPLMKDIKSNKFKKSQSIDEIDVGTYKVYNIPLENYASGSDHLGSHERPDKFLGPEHGMSSMSRSQSVPMLDDEMLMYGSSKGPPQQKASMTKKVYQFDQSFNPQGAVEVKAEKRIPPPFAHNSEYVQQPGKNIAKDLVSPRAYRGYPPMEQMFSFSQPSVNEDAMVNAQFASQGPRAGFLRRADSLASSTEMAMFRRVSEPHELPPGDRYGRAAYRGGLEGQSSVSMTDPQFLKRNGRYEDEHPSYQEVKAQAGSFPAKNLTQRRPLSARSYSTESYGASQTRPVSARPTMAALLEKIPSDYNLGNYGDKTSDNSDIKTRPTPVKGEESCGKMPADWRQQLLRHIEARRLDRTPSQQSNILDNGQEDVSPSGQWNPYPLGRRDVPPDTITKKAGSHIQTLMGSQSLQHRSREQQPYEGNINKVTIQQFQSPLPIQIPSSQATRGPQPGRCLIQTKGQRSMDGYPEQFCVRIEKNPGLGFSISGGISGQGNPFKPSDKGIFVTRVQPDGPASNLLQPGDKILQANGHSFVHMEHEKAVLLLKSFQNTVDLVIQRELTV | binds | binds |
| Nefm (protein, UniProt P12839 1-846) MSYTLDSLGNPSAYRRVPTETRSSFSRVSGSPSSGFRSQSWSRGSPSTVSSSYKRSALAPRLAYSSAMLSSAESSLDFSQSSSLLNGGSGGDYKLSRSNEKEQLQGLNDRFAGYIEKVHYLEQQNKEIEAEIHALRQKQASHAQLGDAYDQEIRELRATLEMVNHEKAQVQLDSDHLEEDIHRLKERFEEEARLRDDTEAAIRAVRKDIEESSMVKVELDKKVQSLQDEVAFLRSNHEEEVADLLAQIQASHITVERKDYLKTDISTALKEIRSQLECHSDQNMHQAEEWFKCRYAKLTEAAEQNKEAIRSAKEEIAEYRRQLQSKSIELESVRGTKESLERQLSDIEERHNHDLSSYQDTIQQLENELRGTKWEMARHLREYQDLLNVKMALDIEIAAYRKLLEGEETRFSTFSGSITGPLYTHRQPSVTISSKIQKTKVEAPKLKVQHKFVEEIIEETKVEDEKSEMEDALTVIAEELAASAKEEKEEAEEKEEEPEVEKSPVKSPEAKEEEEGEKEEEEEGQEEEEEEDEGVKSDQAEEGGSEKEGSSEKDEGEQEEEGETEAEGEGEEAEAKEEKKTEGKVEEMAIKEEIKVEKPEKAKSPVPKSPVEEVKPKPEAKAGKDEQKEEEKVEEKKEVAKESPKEEKVEKKEEKPKDVPDKKKAESPVKEKAVEEMITITKSVKVSLEKDTKEEKPQQQEKVKEKAEEEGGSEEEVGDKSPQESKKEDIAINGEVEGKEEEEQETQEKGSGQEEEKGVVTNGLDVSPAEEKKGEDRSDDKVVVTKKVEKITSEGGDGATKYITKSVTVTQKVEEHEETFEEKLVSTKKVEKVTSHAIVKEVTQGD | binds | binds |
| Pfkm (protein, UniProt P47858 1-780) MTHEEHHEAKTLGIGKAIAVLTSGGDAQGMNATVRAVVRVGIFTGLRVFFVHEGYQGLVDGGEHIREATWESVSMMLQLGGTVIGSARCKDFREREGRLRAAHNLVKRGITNLCVIGGDGSLTGADTFRSEWSDLLNDLQKDGKITAEERTKSSYLNIVFLVGSIDNDFCGTDMTIGTDSALHRIVEIVDAITTTAQSHQRTFVLEVMGRHCGYLALVTSLSCGADWVFIPECPPDDDWEEHLCRRLSETRTRGSRLNIIIVAEGAIDKNGKPITSEDIKNLVVKRLGYDTRVTVLGHVQRGGTPSAFDRILGSRMGVEAVMALLEGTPDTPACVVSLSGNTAVRLPLMECVQVTKDVTKAMDEKRFDEAIKLRGRSFMNNWEVYKLLAHVRPPVSKGGLHTVAVMNVGAPAAGMNAAVRSTVRIGLIQGNRVLVVHDGFEGLAKGQIEEAGWSYVGGWTGQGGSKLGTKRTLPKKNLEQISANITKYNIQGLVIIGGFEAYTGGLELMEGRKQFDELCIPFVVIPATVSNNVPGSDFSIGADTALNTICTTCDRIKQSAAGTKRRVFIIETMGGYCGYLATMAGLAAGADAAYIFEEPFTIRDLQVNVEHLVQKMKTTVKRGLVLRNEKCNENYTTDFIFNLYSEEGKGIFDSRKNVLGHMQQGGNPTPFDRNFATKMGAKATNWMSGKIKESYRNGRIFANTPDSGCVLGMRKRALVFQPVTELKDQTDFEHRIPKEQWWLKLRPILKILAKYEIDLDTSDHAHLEHISRKRSGEAAV | binds | binds |
| Mybbp1a (protein, UniProt O35821 1-1344) MAEMKSPTKAEPASPAEAPQGDRRSLLEHSREFLDFFWDIAKPDQETRLRATEKLLEYLRTRPSDSEMKYALKRLITGLGVGREAARPCYSLALAQLLQSFEDIQLCDILGQIQEKYNLQAMNKAMMRPTLFANLFGVLALFQSGRLVKDKEALMKCVRLLKILSHHYNHLQGQPVKALVDILSEVPESMFQEILPKVLKGDMKVILSSPKYLELFLLARQRVPAELESLVGSVDLFSEDNIPSLVNILKVAANSVKKEQKLPDVALNLLRLALQENKFERFWKEVLEEGLLKKPSYTSSYMCFRLLGASLPLLSDEQLQLVMRGDLIRHFGEHMVVSKSQNPLRFIPEISAYVGTFLEGCQDDPKRQFTVMVAFTAITNQGLPVMPTFWRVTRFLNTEALQNYVTWLRDMFLQPDLDSLVDFSTANQKRVQVASLNVPERTVFRLRKWIIHRLVSLVDHLHLEKDEAVVEQIARFCLFHAFFKTKKATPQIPETKQHFSFPLEDGNRGVIVSAFFSLLQTLSVKFRQTPDLAENGKPWTYRLVQLADMLLKHNRNVANVTPLTAQQRQAWDQMMSTLKELEAQSSETRAIAFQHLLLLVGLHLFKSPAESCDVLGDIQTCIKKSMEQNLRRSRSRAKASQEPVWVEVMVEILLSLLAQPSNLMRQVVRSVFGHVCSHLTPRGLQLILAVLNPETNEDEEDNVVVTDTDEKQLKHGEDADSDSEDSKNSESDVDSEDGEESEEEDRDKDVDPGFRQQLMEVLQAGNALGGEEEEEEELGDEAMMALDQNLASLFAEQKMRIQARHEEKNKLQKEKQLRRDFQIRALDLIEVLVTKQPEHPLILELLEPLLNIIQRSMRSRGSTKQEQDLLHKTARIFMHHLCRARHYCHEVEPGAEALHAQVERLVQQAGNQADASVALYYFNASLYLLRVLKGNTTKRYQDGQKLEGADIKSEPKDSEVQTTSCLDLDFVTRVYSASLESLLTKRNSPLTIPMFLDLFSRYPVICKNLLPIVVQHVAGSSRPRHQAQACLLLQKALSARELRVCFEDPEWEQLISQVLGKTTQTLQTLGEAQSKGEHQRELSILELLNTVFRIVNHEKLSVDLTAFLGMLQGKQQKLQQNLQQGNHSSGSSRLYDLYWQAMNLLGVQRPKSEKKNVKDIPSDSQSPISTKRKKKGFLPETKKRKKLKSEGTTSEKKAASQQDAVTEGAMPAATGKDQPPSTGKKRRKRVKANTPSQVNGVTVAKSPAPNNPTLSPSTPPAKTPKVQKKKEKLSQVNGSTPVSPVEPESKKHQKALSTKEVKRRSSQSALPKKRARLSLVSRSPSLLQSGIRKRRVARRRVQTP | binds | binds |
